In paper PMC9504391:
Results are given in words; binding and its absence hold for the method and conditions named. Binding can be weak; no strength is given. Sequences can lack the tags named with a protein. For some assays here: In cells and extracts the contact can be indirect.

How the values were obtained:
[1] = target: OsABT fused to the GAL4-binding domain (BD) (rice (Oryza sativa)) (UniProt Q10D64); assay: two-hybrid; OsABT as GAL4 BD fusion, partners as GAL4 AD fusions, yeast strain YRG2; growth on SD/-Leu/-Trp/-His/-Ura medium, 4 days at 30 °C
[2] = target: OsABT fused to the C-terminal fragment of YFP (rice (Oryza sativa)); assay: split reporter; BiFC: OsABT with YFP C-terminal fragment, partners with YFP N-terminal fragment, co-expressed in N. benthamiana leaves; confocal imaging 48 h after transformation

binding [1] | binding [2] | Binder
binds |  | OsABIL2 fused to the GAL4 activation domain (AD) (protein, UniProt Q6L4R7 1-445) MEDLALPAAPPAPTLSFTLLAAAAAVAEAMEEALGAALPPLTAPVPAPGDDSACGSPCSVASDCSSVASADFEGFAELGTSLLAGPAVLFDDLTAASVAVAEAAEPRAVGATARSVFAMDCVPLWGLESICGRRPEMEDDYAVVPRFFDLPLWMVAGDAAVDGLDRASFRLPAHFFAVYDGHGGVQVANYCRKRIHAVLTEELRRAEDDACGSDLSGLESKKLWEKAFVDCFSRVDAEVGGNAASGAPPVAPDTVGSTAVVAVVCSSHVIVANCGDSRAVLCRGKQPLPLSLDHKPNREDEYARIEALGGKVIQWNGYRVLGVLAMSRSIGDKYLKPYIIPVPEVTVVARAKDDDCLILASDGLWDVMSNEEVCDAARKRILLWHKKNAATASTSSAQISGDSSDPAAQAAADYLSKLALQKGSKDNITVVVIDLKAHRKFKSKA
 | binds | OsABIL2 fused to the N-terminal fragment of YFP (protein, UniProt Q6L4R7 1-445) MEDLALPAAPPAPTLSFTLLAAAAAVAEAMEEALGAALPPLTAPVPAPGDDSACGSPCSVASDCSSVASADFEGFAELGTSLLAGPAVLFDDLTAASVAVAEAAEPRAVGATARSVFAMDCVPLWGLESICGRRPEMEDDYAVVPRFFDLPLWMVAGDAAVDGLDRASFRLPAHFFAVYDGHGGVQVANYCRKRIHAVLTEELRRAEDDACGSDLSGLESKKLWEKAFVDCFSRVDAEVGGNAASGAPPVAPDTVGSTAVVAVVCSSHVIVANCGDSRAVLCRGKQPLPLSLDHKPNREDEYARIEALGGKVIQWNGYRVLGVLAMSRSIGDKYLKPYIIPVPEVTVVARAKDDDCLILASDGLWDVMSNEEVCDAARKRILLWHKKNAATASTSSAQISGDSSDPAAQAAADYLSKLALQKGSKDNITVVVIDLKAHRKFKSKA
